In article doi:10.1101/666578:
Changes are numbered by the printed parent chain. These are yes or no findings as the source states them, for the method shown. For some assays here: Binding seen in cells or lysates may run through a third protein. Some entries that bind do so weakly or less than the wild type. For some assays here: Where a sequence is shown, tags or fusion partners need not be part of it.

Protein sequences, listed by entry. Tags and fused reporters are not part of them.
UniProt Q9FJD0: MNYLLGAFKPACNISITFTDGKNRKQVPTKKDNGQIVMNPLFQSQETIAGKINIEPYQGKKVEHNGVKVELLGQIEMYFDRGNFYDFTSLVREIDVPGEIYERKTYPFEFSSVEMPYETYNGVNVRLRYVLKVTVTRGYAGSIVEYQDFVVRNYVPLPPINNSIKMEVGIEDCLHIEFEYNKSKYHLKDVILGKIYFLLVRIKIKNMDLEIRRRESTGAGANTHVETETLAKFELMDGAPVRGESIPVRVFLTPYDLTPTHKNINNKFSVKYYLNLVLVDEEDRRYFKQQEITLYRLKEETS

Experiments:
[1] = target: AtVPS26B (split firefly-luciferase fusions AtVPS26B-nLUC and cLUC-AtVPS26B) (Arabidopsis) (UniProt Q9T091); experiment: split reporter
[2] = target: T1, AtRGS1-nLUC (Arabidopsis thaliana) (UniProt Q8H1F2); experiment: split reporter
T1 sequence: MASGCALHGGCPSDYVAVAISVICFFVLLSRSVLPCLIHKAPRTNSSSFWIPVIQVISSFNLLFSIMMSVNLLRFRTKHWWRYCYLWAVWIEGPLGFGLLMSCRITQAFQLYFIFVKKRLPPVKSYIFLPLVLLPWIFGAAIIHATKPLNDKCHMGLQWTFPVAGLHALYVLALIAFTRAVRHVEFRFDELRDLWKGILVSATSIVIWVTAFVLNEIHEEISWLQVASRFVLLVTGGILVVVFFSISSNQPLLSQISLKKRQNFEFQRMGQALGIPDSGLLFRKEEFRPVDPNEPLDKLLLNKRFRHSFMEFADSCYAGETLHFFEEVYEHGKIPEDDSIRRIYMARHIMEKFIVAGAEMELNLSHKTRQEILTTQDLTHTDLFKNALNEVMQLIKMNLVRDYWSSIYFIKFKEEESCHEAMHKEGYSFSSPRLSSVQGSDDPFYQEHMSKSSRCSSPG

[3] = target: AtVPS26A (split firefly-luciferase fusions AtVPS26A-nLUC and cLUC-AtVPS26A) (Arabidopsis) (UniProt Q9FJD0); experiment: split reporter
[4] = target: T2, AtRGS1-nYFP (Arabidopsis thaliana) (UniProt Q8H1F2); experiment: split reporter
T2 sequence: T1 sequence

[5] = target: VPS26B, BiFC fusion (VPS26B-cYFP) (Arabidopsis) (UniProt Q9T091); experiment: split reporter
[6] = target: T3, RGS-ΔCtS405,406A (Arabidopsis thaliana) (UniProt Q8H1F2); experiment: two-hybrid
T3 sequence: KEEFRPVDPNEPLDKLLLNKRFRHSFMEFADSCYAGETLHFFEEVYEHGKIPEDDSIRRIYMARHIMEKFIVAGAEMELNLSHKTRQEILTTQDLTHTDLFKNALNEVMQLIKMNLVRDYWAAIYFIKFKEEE

[7] = target: T4, pAS–RGS-J5 (AtRGS1 amino acids 284–459) (Arabidopsis thaliana) (UniProt Q8H1F2); experiment: two-hybrid
T4 sequence: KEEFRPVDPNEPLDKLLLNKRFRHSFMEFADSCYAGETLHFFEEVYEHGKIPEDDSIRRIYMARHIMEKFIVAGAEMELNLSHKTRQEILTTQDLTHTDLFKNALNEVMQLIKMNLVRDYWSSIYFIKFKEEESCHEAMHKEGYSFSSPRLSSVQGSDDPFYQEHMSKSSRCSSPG

[8] = target: T5, RGS-ΔCt (AtRGS1 amino acids 284–416) (Arabidopsis thaliana) (UniProt Q8H1F2); experiment: two-hybrid
T5 sequence: T3 sequence with A122S, A123S

[9] = target: T6, AtVPS26B (split firefly-luciferase fusions AtVPS26B-nLUC and cLUC-AtVPS26B) (Arabidopsis), Q9T091; experiment: split reporter; conditions: remark: other sources report otherwise
T6 chain: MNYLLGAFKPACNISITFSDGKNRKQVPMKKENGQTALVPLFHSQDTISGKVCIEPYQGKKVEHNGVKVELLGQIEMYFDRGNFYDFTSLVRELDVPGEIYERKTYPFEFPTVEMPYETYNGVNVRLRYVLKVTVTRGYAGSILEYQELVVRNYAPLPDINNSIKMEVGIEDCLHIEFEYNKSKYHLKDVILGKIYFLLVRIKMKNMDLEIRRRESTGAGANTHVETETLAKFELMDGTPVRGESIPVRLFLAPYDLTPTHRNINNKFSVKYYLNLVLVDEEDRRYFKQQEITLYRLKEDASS

[10] = target: T7, AGB1/AGG1 (AtAGB1-nLUC co-expressed with mCherry-AtAGG1) (Arabidopsis) (UniProt P49177+Q9FDX9); experiment: split reporter
T7 sequence 1: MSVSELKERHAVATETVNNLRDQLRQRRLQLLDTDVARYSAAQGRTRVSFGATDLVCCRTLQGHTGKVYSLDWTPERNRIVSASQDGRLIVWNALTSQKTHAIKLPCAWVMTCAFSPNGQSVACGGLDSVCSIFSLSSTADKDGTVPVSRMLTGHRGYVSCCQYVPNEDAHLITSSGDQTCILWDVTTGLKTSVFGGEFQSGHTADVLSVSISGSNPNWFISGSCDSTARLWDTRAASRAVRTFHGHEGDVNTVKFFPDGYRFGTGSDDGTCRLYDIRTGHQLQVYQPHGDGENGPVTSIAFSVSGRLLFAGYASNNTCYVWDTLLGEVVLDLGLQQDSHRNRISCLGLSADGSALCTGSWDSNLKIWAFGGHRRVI
T7 sequence 2: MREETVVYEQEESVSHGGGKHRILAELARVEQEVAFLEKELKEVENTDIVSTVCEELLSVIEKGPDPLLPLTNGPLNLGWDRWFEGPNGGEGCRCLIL

Molecule: AtVPS26A (split firefly-luciferase fusions AtVPS26A-nLUC and cLUC-AtVPS26A) (from UniProt Q9FJD0 1-302)
- binding [1]: binds
- binding [2]: binds
- binding [3]: no binding

Molecule: VPS26A, BiFC fusion (cYFP-VPS26A) (from UniProt Q9FJD0 1-302)
- binding [4]: binds
- binding [5]: binds

Molecule: VPS26B, BiFC fusion (VPS26B-cYFP) (from UniProt Q9T091 1-303)
- binding [4]: binds

Molecule: pACTGW–AtVPS26B (from UniProt Q9T091 1-303)
- binding [6]: no binding
- binding [7]: binds
- binding [8]: binds

B1: AtVPS26B (split firefly-luciferase fusions AtVPS26B-nLUC and cLUC-AtVPS26B), Q9T091 1-303 (protein)
chain: T6 chain
- binding [9]: binds

B2: cLUC-AtGPA1 (protein, UniProt P18064 1-383)
chain: MGLLCSRSRHHTEDTDENTQAAEIERRIEQEAKAEKHIRKLLLLGAGESGKSTIFKQIKLLFQTGFDEGELKSYVPVIHANVYQTIKLLHDGTKEFAQNETDSAKYMLSSESIAIGEKLSEIGGRLDYPRLTKDIAEGIETLWKDPAIQETCARGNELQVPDCTKYLMENLKRLSDINYIPTKEDVLYARVRTTGVVEIQFSPVGENKKSGEVYRLFDVGGQRNERRKWIHLFEGVTAVIFCAAISEYDQTLFEDEQKNRMMETKELFDWVLKQPCFEKTSFMLFLNKFDIFEKKVLDVPLNVCEWFRDYQPVSSGKQEIEHAYEFVKKKFEELYYQNTAPDRVDRVFKIYRTTALDQKLVKKTFKLVDETLRRRNLLEAGLL
- binding [10]: binds
